From paper PMC9460513, “The 5′-phosphate enhances the DNA-binding and exonuclease activities of human mitochondrial genome maintenance exonuclease 1 (MGME1)” come the findings set out here.

Construct, isoform or probe ends are uncertain for at least one entry. A weaker result is weaker than the reference pair of the same experiment. Where a protein sequence is shown, tags need not be part of it.

The target of this series is T1, MGME1 (Homo sapiens) (UniProt Q9BQP7).
T1 sequence (looked up, limits assumed): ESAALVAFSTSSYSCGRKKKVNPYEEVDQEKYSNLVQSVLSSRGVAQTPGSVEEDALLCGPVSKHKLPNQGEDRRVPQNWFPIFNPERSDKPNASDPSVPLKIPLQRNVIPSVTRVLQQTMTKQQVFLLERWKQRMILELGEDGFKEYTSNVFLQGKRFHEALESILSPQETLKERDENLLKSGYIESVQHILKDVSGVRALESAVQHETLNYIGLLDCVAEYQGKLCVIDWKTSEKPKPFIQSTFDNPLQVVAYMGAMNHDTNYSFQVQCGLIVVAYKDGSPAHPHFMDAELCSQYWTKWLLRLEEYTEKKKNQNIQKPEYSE
As to the kind of experiment: EMSA. The note with it: 10 mM EDTA, EMSA: 1 uM ssDNA, 20 mM Hepes pH 8.0, 100 mM NaCl, 1 mM DTT, room temperature 15 min, gel 0.35x TBE at 4 C, recombinant protein, protein details: His-SUMO tag removed by Ulp1, label: 3'-6FAM, single-stranded DNA.

For the sequence TTTTTTTTTTTTTTTTTTTT [T20(3')], the binding result (lower complex yield than T20(5')) is “binds more weakly”. On to TTTTTTTTTT [T10(3')], for which, under “higher MGME1 needed for detectable complex”, the binding result is “binds more weakly”.
